Results as given in publication PMC12582980.
No constants are given. Whether binding was seen depends on the method and setting. In cells and extracts the contact can be indirect. Some binding calls cover weakened binding; strength is not graded here.

Protein sequences, listed by entry. Tags and fused reporters are not part of them.
UniProt Q92993: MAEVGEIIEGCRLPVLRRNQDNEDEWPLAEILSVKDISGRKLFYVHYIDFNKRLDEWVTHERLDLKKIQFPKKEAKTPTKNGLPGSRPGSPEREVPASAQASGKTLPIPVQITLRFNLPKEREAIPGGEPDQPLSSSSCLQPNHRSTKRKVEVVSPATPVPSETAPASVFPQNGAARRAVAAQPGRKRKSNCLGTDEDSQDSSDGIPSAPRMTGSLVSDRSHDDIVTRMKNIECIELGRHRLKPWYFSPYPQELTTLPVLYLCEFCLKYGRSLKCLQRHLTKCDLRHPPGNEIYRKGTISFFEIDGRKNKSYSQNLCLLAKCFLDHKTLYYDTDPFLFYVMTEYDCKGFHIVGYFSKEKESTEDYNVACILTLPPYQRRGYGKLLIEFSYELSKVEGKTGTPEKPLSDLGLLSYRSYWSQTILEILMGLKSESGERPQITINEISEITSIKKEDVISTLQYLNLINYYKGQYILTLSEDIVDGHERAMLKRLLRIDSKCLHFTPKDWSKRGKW
UniProt Q92831: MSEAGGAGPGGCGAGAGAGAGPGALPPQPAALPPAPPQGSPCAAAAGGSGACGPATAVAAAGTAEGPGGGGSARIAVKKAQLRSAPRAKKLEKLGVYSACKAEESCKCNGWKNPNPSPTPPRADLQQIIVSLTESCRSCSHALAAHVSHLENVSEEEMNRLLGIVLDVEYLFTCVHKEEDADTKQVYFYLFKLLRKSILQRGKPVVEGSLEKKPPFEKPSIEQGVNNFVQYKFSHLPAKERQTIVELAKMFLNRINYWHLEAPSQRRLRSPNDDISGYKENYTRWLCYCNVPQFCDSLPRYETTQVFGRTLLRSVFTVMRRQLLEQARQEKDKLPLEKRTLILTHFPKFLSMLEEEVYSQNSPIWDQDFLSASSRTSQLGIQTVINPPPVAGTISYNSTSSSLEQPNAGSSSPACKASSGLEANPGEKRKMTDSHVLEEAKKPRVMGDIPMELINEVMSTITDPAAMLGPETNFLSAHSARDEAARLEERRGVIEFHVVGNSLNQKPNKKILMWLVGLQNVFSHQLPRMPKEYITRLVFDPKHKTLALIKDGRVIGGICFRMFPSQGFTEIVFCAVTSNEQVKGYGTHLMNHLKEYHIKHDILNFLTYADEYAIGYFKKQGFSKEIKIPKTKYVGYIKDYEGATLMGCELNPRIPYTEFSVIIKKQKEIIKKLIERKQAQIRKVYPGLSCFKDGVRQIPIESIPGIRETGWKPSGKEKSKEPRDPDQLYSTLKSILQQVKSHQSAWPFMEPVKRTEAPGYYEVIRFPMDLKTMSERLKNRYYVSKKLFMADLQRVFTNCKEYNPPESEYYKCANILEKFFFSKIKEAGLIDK
UniProt Q92830: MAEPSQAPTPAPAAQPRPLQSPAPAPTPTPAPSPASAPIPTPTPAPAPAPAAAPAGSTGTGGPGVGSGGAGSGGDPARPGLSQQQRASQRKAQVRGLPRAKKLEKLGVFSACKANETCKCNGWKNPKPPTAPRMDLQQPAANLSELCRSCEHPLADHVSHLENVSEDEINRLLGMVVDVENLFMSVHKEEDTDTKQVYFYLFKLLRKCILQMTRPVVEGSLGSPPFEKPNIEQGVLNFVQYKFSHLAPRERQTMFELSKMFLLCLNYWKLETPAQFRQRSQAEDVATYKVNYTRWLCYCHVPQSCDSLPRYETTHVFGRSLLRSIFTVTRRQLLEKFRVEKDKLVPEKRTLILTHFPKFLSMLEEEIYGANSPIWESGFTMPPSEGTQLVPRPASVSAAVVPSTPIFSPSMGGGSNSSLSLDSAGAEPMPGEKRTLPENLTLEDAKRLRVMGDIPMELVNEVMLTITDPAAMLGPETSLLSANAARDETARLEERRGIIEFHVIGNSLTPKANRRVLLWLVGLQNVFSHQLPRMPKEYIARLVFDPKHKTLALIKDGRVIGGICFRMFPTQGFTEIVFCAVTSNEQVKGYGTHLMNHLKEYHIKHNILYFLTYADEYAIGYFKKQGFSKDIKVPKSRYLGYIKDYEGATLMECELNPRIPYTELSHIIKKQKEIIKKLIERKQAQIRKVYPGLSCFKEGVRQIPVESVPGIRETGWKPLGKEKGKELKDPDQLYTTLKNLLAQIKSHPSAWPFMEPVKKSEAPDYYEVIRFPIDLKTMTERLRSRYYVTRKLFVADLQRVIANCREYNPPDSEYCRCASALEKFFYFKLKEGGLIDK
UniProt Q02548: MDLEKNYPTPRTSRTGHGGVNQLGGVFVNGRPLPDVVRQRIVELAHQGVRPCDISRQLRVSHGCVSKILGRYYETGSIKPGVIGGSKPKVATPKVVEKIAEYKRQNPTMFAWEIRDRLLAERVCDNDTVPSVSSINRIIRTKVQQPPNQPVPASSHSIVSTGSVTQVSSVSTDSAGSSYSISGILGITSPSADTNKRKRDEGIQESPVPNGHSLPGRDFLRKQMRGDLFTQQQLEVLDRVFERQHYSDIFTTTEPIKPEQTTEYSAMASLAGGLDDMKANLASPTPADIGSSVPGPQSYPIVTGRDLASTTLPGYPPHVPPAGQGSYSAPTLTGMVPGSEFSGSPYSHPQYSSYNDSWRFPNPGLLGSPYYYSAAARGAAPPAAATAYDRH

Legend:
Assay in all cases: co-IP; performed as in Fig. 2A: HEK293T transfected; lysates; PAX5 and HATs, with or without PAX5-C co-expression (Fig. 3A)
[1] = target: TIP60 (TAT-interacting protein 60-kD) (UniProt Q92993)
[2] = target: P/CAF (p300/CBP-associated factor) (UniProt Q92831)
[3] = target: GCN5 (general control of amino acid synthesis 5) (UniProt Q92830)

Measured: binding

PAX5 (paired box gene 5) (from UniProt Q02548 1-391)
binds: [1] | [2] | [3]
